Reference: paper PMC12655669
These are yes or no findings as the source states them, for the method shown. In cells and extracts the contact can be indirect. Some binding calls cover weakened binding; strength is not graded here.

Molecular target: T1, triggering receptor expressed on myeloid cells 2 (Trem2) (mouse (endogenous in murine macrophages)) (UniProt Q99NH8)
T1 sequence: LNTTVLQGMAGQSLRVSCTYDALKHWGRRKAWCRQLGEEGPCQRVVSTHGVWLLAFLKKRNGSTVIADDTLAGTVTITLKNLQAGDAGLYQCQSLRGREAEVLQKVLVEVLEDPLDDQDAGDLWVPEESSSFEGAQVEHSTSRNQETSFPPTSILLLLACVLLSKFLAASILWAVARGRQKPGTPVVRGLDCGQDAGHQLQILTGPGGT
Test: co-IP; macrophage cell lysates in RIPA buffer with PMSF; 2 ug anti-Trem2 or control IgG antibody, 4 °C, 2 h; Protein A/G Plus-Agarose overnight at 4 °C; washed with lysis buffer; immunoblot for MICAL1 and Trem2

binding: binds
B1: MICAL1 (enzyme, UniProt Q8VDP3 1-1048)
chain: MASPASTNPAHDHFETFVQAQLCQDVLSSFQGLCRALGVESGGGLSQYHKIKAQLNYWSAKSLWAKLDKRASQPVYQQGQACTNTKCLVVGAGPCGLRAAVELALLGARVVLVEKRIKFSRHNVLHLWPFTIHDLRALGAKKFYGRFCTGTLDHISIRQLQLLLLKVALLLGVEIHWGVKFTGLQPPPRKGSGWRAQLQPNPPAQLASYEFDVLISAAGGKFVPEGFTIREMRGKLAIGITANFVNGRTVEETQVPEISGVARIYNQKFFQSLLKATGIDLENIVYYKDETHYFVMTAKKQCLLRLGVLRQDLSETDQLLGKANVVPEALQRFARAAADFATHGKLGKLEFAQDARGRPDVAAFDFTSMMRAESSARVQEKHGARLLLGLVGDCLVEPFWPLGTGVARGFLAAFDAAWMVKRWAEGAGPLEVLAERESLYQLLSQTSPENMHRNVAQYGLDPATRYPNLNLRAVTPNQVQDLYDMMDKEHAQRKSDEPDSRKTTTGSAGTEELLHWCQEQTAGFPGVHVTDFSSSWADGLALCALVHHLQPGLLEPSELQGMGALEATTWALRVAEHELGITPVLSAQAVMAGSDPLGLIAYLSHFHSAFKNTSHSSGLVSQPSGTPSAILFLGKLQRSLQRTRAKVDEETPSTEEPPVSEPSMSPNTPELSEHQEAGAEELCELCGKHLYILERFCVDGHFFHRSCFCCHTCEATLWPGGYGQHPGDGHFYCLQHLPQEDQKEADNNGSLESQELPTPGDSNMQPDPSSPPVTRVSPVPSPSQPARRLIRLSSLERLRLSSLNIIPDSGAEPPPKPPRSCSDLARESLKSSFVGWGVPVQAPQVPEAIEKGDDEEEEEEEEEEEEEPLPPLEPELEQTLLTLAKNPGAMTKYPTWRRTLMRRAKEEEMKRFCKAQAIQRRLNEIEATMRELEAEGTKLELALRKESSSPEQQKKLWLDQLLRLIQKKNSLVTEEAELMITVQELDLEEKQRQLDHELRGYMNREETMKTEADLQSENQVLRKLLEVVNQRDALIQFQEERRLREMPA
